Experimental data as given in paper PMC340941.
These are yes or no findings as the source states them, for the method shown. Binding seen in cells or lysates may run through a third protein. For some of these results: A result given as binding can be weak or reduced; the word gives no strength. Tags and fused reporters may be left off the sequences shown.

Key:
[1] = target: Sqt^ActβB[loopβ8]/HA (zebrafish | Xenopus); assay: co-IP; RNAs (1 ng each) for ligand/HA, ActRIIB(KR)/Myc and Alk4(KR)/Flag injected into Xenopus embryos, with Cripto/Flag; Western blot of coimmunoprecipitates (Figure 5F)
[2] = target: Sqt^ActβB[loopβ8]/HA (zebrafish | Xenopus); assay: co-IP; RNAs (1 ng each) for ligand/HA, ActRIIB(KR)/Myc and Alk4(KR)/Flag injected into Xenopus embryos, without Cripto/Flag; Western blot of coimmunoprecipitates (Figure 5F)
[3] = target: Xenopus ActivinβB/HA (Xenopus); assay: as above
[4] = target: zebrafish Lefty1/HA (zebrafish); assay: co-IP; mRNAs (1 ng each) injected into Xenopus embryos; after chemical cross-linking (DTSSP) lysates immunoprecipitated with anti-HA antibody for Lefty1/HA or Sqt/HA; Western blot (Figure 3A)

- binding [1]: binds
- binding [2]: binds
- binding [3]: binds
- binding [4]: no binding
B1: human Alk4(KR)/Flag (receptor, UniProt P36896 24-505)
chain: SGPRGVQALLCACTSCLQANYTCETDGACMVSIFNLDGMEHHVRTCIPKVELVPAGKPFYCLSSEDLRNTHCCYTDYCNRIDLRVPSGHLKEPEHPSMWGPVELVGIIAGPVFLLFLIIIIVFLVINYHQRVYHNRQRLDMEDPSCEMCLSKDKTLQDLVYDLSTSGSGSGLPLFVQRTVARTIVLQEIIGKGRFGEVWRGRWRGGDVAVRIFSSREERSWFREAEIYQTVMLRHENILGFIAADNKDNGTWTQLWLVSDYHEHGSLFDYLNRYTVTIEGMIKLALSAASGLAHLHMEIVGTQGKPGIAHRDLKSKNILVKKNGMCAIADLGLAVRHDAVTDTIDIAPNQRVGTKRYMAPEVLDETINMKHFDSFKCADIYALGLVYWEIARRCNSGGVHEEYQLPYYDLVPSDPSIEEMRKVVCDQKLRPNIPNWWQSYEALRVMGKMMRECWYANGAARLTALRIKKTLSQLSVQEDVKI
